This test addresses TsmK with STREP tag (TsmK^STREP) (Acinetobacter baumannii ATCC 17978). The test can be described thus: pull-down; two proteins co-produced in E. coli BL21(DE3); detergent-solubilised extract (DDM, DM-NPG) on Strep- or His-Trap-HP, 50 mM Tris-HCl pH 8.0, 50 mM NaCl, 0.05% DM-NPG; eluate immunoblotted. Background: Immunoblotting shows a protein as a band on a membrane.

These are yes or no findings as the source states them, for the method shown. Binding seen in cells or lysates may run through a third protein. A result given as binding can be weak or reduced; the word gives no strength.

B1: TssK (co-produced in E. coli) (protein, UniProt R9RHI9 1-454)
chain: MFKAEKVLWGEGLFLRPQHFQIQDTYHEQRLNHTVRAVVPFSYGVQKLSFDEAQLSTHILALETVEMIWQDGEIYQAPAYDLLPEPILLDELNLRGEMVIYLALPLLQANKQNLIDQNQSQKGRYQSHLVETHDLFTNATEADISLLRRRAVFKLLDVNSNPDHNLDGFLYLPIGKIKRQSSGAFEIDRKFIPPILHVDASETLVSNLKRTLNVIKAKIKTIQTNNRENEQKLIEFRSGDIVSFWLVNALNTAHAGLNHFLQYPQIHPERLFFELLRLAGSLLTFSTAYEVDQLPAYKHHNLQESFTQLDTILRDLLDTIISSRYISIALKEIRPSYWVGSLETDKITRDTRLYIAVSSSAMQTHELIQIVPLRFKIGSTLDVEQRVVAALPAIPLHHLIQVPTAIPVRSGVSYFEIEPHHELYQRMLDSETICIYVPAGFQDISIELIAVMNA
As to B1, the binding entry is listed as “binds”.

These data come from article PMC10564176.
